According to US20240262906A1 (WELLMARKER BIO, published 2024):
Results are given in words; binding and its absence hold for the method and conditions named. Some entries that bind do so weakly or less than the wild type.

Molecular target: T1, IGSF1 overexpressed on cells (NCI-H292 IGSF1 O/E; HEK293E IGSF1 O/E) (human) (UniProt Q8N6C5)
T1 sequence: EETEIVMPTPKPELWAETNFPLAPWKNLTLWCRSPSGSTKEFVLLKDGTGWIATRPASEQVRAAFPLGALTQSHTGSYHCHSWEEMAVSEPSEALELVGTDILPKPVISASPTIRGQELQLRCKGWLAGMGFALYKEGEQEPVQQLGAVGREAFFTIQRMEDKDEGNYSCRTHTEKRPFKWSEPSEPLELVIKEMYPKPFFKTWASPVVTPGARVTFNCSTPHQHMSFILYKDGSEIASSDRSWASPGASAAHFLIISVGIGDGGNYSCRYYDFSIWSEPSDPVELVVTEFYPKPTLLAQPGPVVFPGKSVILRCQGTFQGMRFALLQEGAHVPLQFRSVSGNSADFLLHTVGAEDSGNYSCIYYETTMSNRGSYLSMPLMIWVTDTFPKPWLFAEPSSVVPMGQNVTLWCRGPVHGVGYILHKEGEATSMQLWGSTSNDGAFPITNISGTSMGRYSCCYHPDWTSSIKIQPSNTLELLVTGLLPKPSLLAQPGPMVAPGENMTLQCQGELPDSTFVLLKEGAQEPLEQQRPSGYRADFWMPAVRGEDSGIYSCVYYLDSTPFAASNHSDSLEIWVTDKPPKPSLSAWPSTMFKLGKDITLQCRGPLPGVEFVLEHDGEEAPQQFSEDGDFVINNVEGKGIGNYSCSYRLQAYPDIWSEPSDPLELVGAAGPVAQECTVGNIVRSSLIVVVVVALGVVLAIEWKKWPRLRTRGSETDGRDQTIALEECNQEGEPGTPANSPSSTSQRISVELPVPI
Test: flow cytometry on IGSF1 O/E cells (NCI-H292, HEK293E) transfected with scramble RNA; binding fell when IGSF1 was knocked down with shIGSF1

B1: WM-A1-3389 antibody (antibody, human IgG1, kappa, V domains shown)
VH: QVQLVQSGAEVKRPGSSVKVSCKASGGTFSTYAISWVRQAPGQGLEWMGRIIPFVGTVDYAQKFQDRVTITADKSTNTAYMELSSLRSEDTAVYYCVRDGGRSYFDSWGPGILVTVSS
VL: QFVLTQPPSVSAAPGQDVIISCSGNTSNIGSNLVSWFQQFPETAPKLLIYDNHKRPSGISDRFSGTKSGTSASLAISGLQSEDEADYYCVAWDDSLNGYVFGTGTKVTVLR
notes: Human antibody from a phage library, converted to whole IgG; also called anti-IGSF1 antibody
- binding: binds
